## Results from one PubChem assay

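Genome-wide siRNA knockdown in TC32 Ewing sarcoma cells, comparing luciferase light from an NR0B1-promoter reporter with a CMV-promoter reporter 48 hours after transfection.
Each siRNA was applied at 20 nM.
A z-score of the log NR0B1-over-CMV signal, less the median of siRNAs with the same seed; more negative means a stronger specific loss of the NR0B1 reporter.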

The strongest results of the screen are mostly left out here.
Sequences are the guide (antisense) strand, without overhang.

Result for AUUGGAAACAUCCACCACC against TLE3 was seed-corrected z-score 0.1219. AUACUUUCCACAAUACCUG against ADH4 read seed-corrected z-score 0.02701. For UCUUUUUGAUCUCAUGCCG against MTSS1L the result was seed-corrected z-score 0.4752. With UUUCGUUCUGGAAUAGUGG against URI1 the assay gave seed-corrected z-score 0.9625. UUUCGAACAAAAGGCAUCC against TFIP11 read seed-corrected z-score -0.1108. Result for UUUGCUACCUUCAACAGAG against TIGD4 was seed-corrected z-score 0.277.

With UCAGGUACUUGGGUCCAGG against ODF3 the assay gave seed-corrected z-score 0.7874. With AUCCUAUUGAGCAUGAUUU against SNRPN the assay gave seed-corrected z-score 0.2594. AGAUAUUAAAUUGAGGUAC against UGGT2 read seed-corrected z-score 0.4866. AUAAGUCUUCUGUAGUGGG against SLC4A1 read seed-corrected z-score 0.172. Result for UAGCUUGAUUGCAAGAUCC against TARBP1 was seed-corrected z-score -0.1139. With AAGGAUAGCAAUCAUGACC against TAAR9 the assay gave seed-corrected z-score 0.5013.

With AUAACUGAGAUCAAAUUUC against MFN1 the assay gave seed-corrected z-score 0.8119. UUUCCUUUGUGCUUGAAGC against DDX56 gave seed-corrected z-score -0.9202. UCCUCUAGUAUUUCUGUAG against TRIM74 gave seed-corrected z-score 0.7533. UGAGCGGACAGAGUCAGGU against C17orf50 read seed-corrected z-score 0.4575. UUACUUGCCUCGUACGGUC against PAX1 gave seed-corrected z-score -0.3969. UGUCUUACCACUGGUGCCC against NFKBIE read seed-corrected z-score -0.5219.

With UCUUCGUCGGUAGAGAUGG against ARHGEF1 the assay gave seed-corrected z-score -0.6259. With AAAGGAGACAGUUGCAUGC against VMAC the assay gave seed-corrected z-score -0.7171. For UUGGUUCCAACGGUUUGCC against AFF1 the result was seed-corrected z-score -0.9162. For UUUUGACUGAGGACCUUGC against ZNF818P the result was seed-corrected z-score 0.8669. GAUAUCUUCAGAUGUGUGU against LOC728433 gave seed-corrected z-score 0.9785. Result for UUGUAAAACACCUCGAACC against DENND1C was seed-corrected z-score 0.5452.

For UCAUCCACCAGUAAGACAC against PTGER4 the result was seed-corrected z-score 0.006229. For UUACGUGAAACACUGAGGC against INSM1 the result was seed-corrected z-score -0.7594. With AACUCAUCAGCGUCCAGGG against CAPS the assay gave seed-corrected z-score -0.06154. For UACCUACUCACAUCACGAC against TAF15 the result was seed-corrected z-score -0.9607. With UUUGGUAAGCUGGAAUUUG against ELMOD3 the assay gave seed-corrected z-score -0.6926.

The last 2 entries again:

| Sequence | gene | seed-corrected z-score |
|---|---|---|
| `UACCUACUCACAUCACGAC` | TAF15 | -0.9607 |
| `UUUGGUAAGCUGGAAUUUG` | ELMOD3 | -0.6926 |

Source: PubChem BioAssay AID1159506 (NCATS, 2015).